Most values lie at the floor of the assay. Slopes are relative: functional sequences can read slightly below zero.
The substances below were run on Saccharomyces cerevisiae PS128 hsf1 delta, HSF1(1-493) fusion (assay: growth estimate (transactivation domain function in HSF1 fusion, heat-shock survival) (a.u. (slope of normalised read count over time)); higher = stronger growth at 37°C, i.e. more transactivation activity). Conditions: library: random library.
Protocol: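 Random 60-nt DNA library encoding peptides of up to 20 aa, fused to the C-terminus of yeast HSF1 residues 1-493 (C-terminal TAD deleted) and expressed from the native HSF1 promoter on a CEN plasmid in hsf1-deleted S. cerevisiae PS128. Cells were selected at 37°C on -trp 5-FOA plates for 0, 2, 4, 6 and 8 days and amplicons were sequenced. Growth estimate is the slope of a robust linear fit of total-sum-normalised read counts (normalised to the first time point) over time, using at least 2 replicates. Sequences are classed functional (TAD activity) above a threshold of -0.13, set from stop-codon control sequences.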

Substance	growth estimate
MGDLATGLARKN	< -0.25
HLMVG	< -0.25
KYKPRFPIRPIVEYSVYNQA	< -0.25
RVWRGEPRTV	< -0.25
GVSGLLIFGVSRFGPLLGVA	< -0.25
TLVGSAGADLAGSHGSPSRV	< -0.25
EVCKPEQKFRQC	< -0.25
LGWGPPGNKLT	< -0.25
EDDSV	-0.246
CLLLIVSY	< -0.25
RTGTSEYELHGYTVC	< -0.25
IRVNN	< -0.25
AGSRAVL	-0.243
ICGQHIVGRILEADVALISW	< -0.25
LSDYMPRGPQYCE	< -0.25
KQLRLAGCPNANTALLSAMS	-0.219
LTLRQPQPIDAPPGSVTILL	< -0.25
GQLVRNRTNRRIPMFCTLGR	< -0.25
SWVGQLNA	< -0.25
LRPGSAHSNVAEVTGGLICH	< -0.25
GPPLEGEGGTSVWIGCSRA	< -0.25
FPPQPRLCLVLRRSKLGPCK	< -0.25
AHTL	-0.243
LHQYTL	< -0.25
DSSVDLALLMGSSRGYDLEM	< -0.25

Five entries picked at random from the list so far:
Substance	growth estimate
FPPQPRLCLVLRRSKLGPCK	< -0.25
GPPLEGEGGTSVWIGCSRA	< -0.25
ICGQHIVGRILEADVALISW	< -0.25
RTGTSEYELHGYTVC	< -0.25
MGDLATGLARKN	< -0.25

The listing continues.

Substance	growth estimate
ARHDDGNLYLRTGCTVTLSW	< -0.25
SRPTCLRDRFVIKQSHGLRN	< -0.25
AEKRELVPSRPFKYRGECAQ	< -0.25
QTGDLIRDFPLRNHSSTREA	< -0.25
VLMRGTVSLLSQDASQSVAE	< -0.25
SGHRGR	< -0.25
SGLEVTLSLGQ	< -0.25
ARPHICMKYRRYTSIAWVIA	< -0.25
PLSLKLFYVLGPNHEEVVLP	< -0.25
WTGTLSIIPRLTWDEGR	< -0.25
KRETSKPVFWKRKKLRCGNH	< -0.25
IGYGLVGDPRSCGILGLRSG	< -0.25
WEYEASESANGWSLCGRLQI	< -0.25
AMAVHVGVGYTSCMETINDL	< -0.25
TSHKPPQDDDAVQKSQD	< -0.25
SHSKTQ	< -0.25
GGVHNTDRTVSTGNSKA	< -0.25
GSPYNCERVIGSRGVRRRV	< -0.25
AVITEPKIPYGAIINCSRIR	< -0.25
VVWEAV	< -0.25
HTDGRRKLRRSVSAHSVTYP	< -0.25
DPPSSQRHPYPTAYH	< -0.25
FGSRHRWT	< -0.25
SGRVGDGGVT	< -0.25
GVGVSWKYVNRWWGSFDRAV	< -0.25

Substance	growth estimate
WIRVTNPAGIYQLKPRSVLL	< -0.25
TVYSAGSLTRV	< -0.25
LFSTCVTFCLP	< -0.25
PQRSPVEWKFGGFRETSSVI	< -0.25
PVHINCVRFVGRWRFRAE	< -0.25
LGTLSTTN	< -0.25
YGEHYDLLRERVRMVSENVG	< -0.25
LTRPSLISDDMR	< -0.25
KSAYTFGRARLNSEDAGITG	< -0.25
CLGQRHDPCMDCVLPRCSRP	< -0.25
QIGLRVRY	< -0.25
SEVRIRDCKQSSTLARSNPH	< -0.25
RYNYAVSHGCNGGVARVGGG	< -0.25
GQDRVHFL	< -0.25
VHARLGPVSERPISLMMSVP	< -0.25
GLDSDDDNVYRCPSFCM	< -0.25
CFA	< -0.25
HLEPTSSRSEAGTTGHVTSM	< -0.25
DRPCAMAKA	< -0.25
NAFPLCEPYVADVSR	< -0.25
RANLGSVLLSRDS	-0.148
SRRLPFRGTRNCYRRRLCNY	< -0.25
SPRCISRGPRFHLG	< -0.25
LNKGTNFRPKFSLGWTCECS	-0.187
VPCRIQNLAITKNHCRASTM	< -0.25

Substance	growth estimate
TGLRFDGKS	< -0.25
WLWSVVA	< -0.25
QGYLGRHRSQN	< -0.25
MLSA	< -0.25
RAGTSEDFLGEMGSYYNVAD	-0.199
KKIASGVAGSLALEG	< -0.25
IIWTFGLTRSAPNVFREAIR	< -0.25
GCIGKVSSRTRELRR	< -0.25
EVRATQPESHLLGEESKKSF	< -0.25
PWTR	< -0.25
TACES	< -0.25
PVVVIPDRKVGFIRGEEVGH	< -0.25
GLYKDQWC	< -0.25
SADSDHQTGEMLRGVRCM	< -0.25
RVSPPSSQVILNLSAFCEVA	< -0.25
GEM	< -0.25
TDEKNKCLWSLRRKNYA	< -0.25
RQYTALQRHTSTVPCQVRNQ	< -0.25
RFNVMPTQGGGY	< -0.25
LTYLLRPAKHTLVWFWV	< -0.25
GPIDACSRLQLCTARASIER	< -0.25
TRFTPACRGGNGPGDVDTT	< -0.25
FYANVVPFLWGCIA	< -0.25
NLKQHADSTCFWVCKR	< -0.25
HFITPGA	< -0.25

Substance	growth estimate
SVRLGS	< -0.25
VLWFTSITETSPLRVDENRS	< -0.25
RPYRLQDYFSCSRPGRE	< -0.25
IRRPFSPDRGLLAWYLEICV	< -0.25
YCSTLQRLLNSERQGLRHPY	< -0.25
SGGAVP	< -0.25
LCSA	< -0.25
VLYYFVNVTWAQVYANQKFE	< -0.25
RYSFCSFYGIHAFSGIRRDT	< -0.25
IIKRRTRTG	< -0.25
TGYVVGVETYPTGRGAGGEL	< -0.25
SWQGLVSPVELKCL	< -0.25
DACPNACFS	< -0.25
LVKMPFDGN	< -0.25
KVGADPCVGLSLNIE	< -0.25
KNRREVC	< -0.25
TYETRGLETVSVGQDSTWTC	< -0.25
IGKDWAVGL	-0.203
QGRWFENLMG	< -0.25
RNSRLFVNYRKVPDESVRWP	< -0.25
IEMKRRIIFIKHT	< -0.25
RYVKLFKIKDVPTVLISQAG	< -0.25
ESRGWKAVLTANRTRTCSCE	< -0.25
SQQFRTMPTIRVLDQLK	< -0.25
ESFSC	< -0.25

Substance	growth estimate
ECQIRLG	-0.233
MINGIRSGLHMGPLFRVLSR	< -0.25
SGPTAGVGQQEPDRWKPSVR	< -0.25
CTLALRKRVRQRWCISDFGP	< -0.25
TFRCYNTQDIGSLLVTCLVN	< -0.25
SVFSTGLH	< -0.25
LCLRYSGRS	< -0.25
EVAYYGQLVQNCRQLQGRPG	< -0.25
YGEDGNREATSGAASCSASD	< -0.25
GCSEHIWRAPAVSALASLVS	< -0.25
LTDS	< -0.25
RSTDP	< -0.25
VTVMPRKDAAYS	< -0.25
ILRL	-0.246
RSDASFCVWRVLTG	< -0.25
CHVVFTSAFLRKRRLYSRTG	< -0.25
WCVHPAWTFSGGNF	< -0.25
TTDL	< -0.25
LPRNYVRDKCFSLSGAGNEE	< -0.25
VYSQ	< -0.25

Source: the supplement of paper PMC5949888
